# From PubChem BioAssay AID2685 (National Center for Advancing Translational Sciences (NCATS), 2010)
# Among all 320,000 compounds or so, about 2,100 (0.66%) were called active. This list was built around the results that the source calls inconclusive (neither active nor inactive); the mix of calls is not that of the screen. The call rests on the fitted dose curve; in most records, active means well fitted inhibition curve with a large enough effect in the signal ratio, with a control signal flat (not every such curve was filed as active); inconclusive means small, poorly fitted or top-dose-only effect, or effect the other way, or a change in a side signal; inactive means flat fitted curve, though single readings scatter; the % refers to the signal ratio. Potencies of inconclusive entries are doubtful fits and often do not repeat.
# Assay: qHTS Assay for Lipid Storage Modulators in Drosophila S3 Cells
# Details: BODIPY lipid droplet fluorescence, 18-24 h, cells fed with added oleic acid; lipid storage change, negative = inhibition: at 46.1 µM (top of the series) unless noted
# Summary of the method: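 Drosophila S3 cells got compounds at several concentrations plus oleic acid (400 uM solution). Laser-scanning cytometry with 488 nm excitation read lipid droplets at 500-530 nm and cells at 575-640 nm. Percent activity was relative to 20 uM Triacsin C.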
# On the % scale 0 is the no-effect control and ±100 the full control effect; potency means the concentration at half of the fitted maximal effect.
Compound,Potency,"lipid storage change, negative = inhibition"
Cc1ccc(S(=O)(=O)N2CCN(C(=O)CN3C(=O)c4ccccc4C3=O)CC2)c(C)c1,"inconclusive: 29.1 µM [activator, single point]",–
CC(=O)N1c2ccc(S(=O)(=O)N3CCC(C(=O)N4CCCC(C)C4)CC3)cc2CC1C (stereo not given),"inconclusive: 20.6 µM [falling, single point]",–
C/C=C/c1ccc(OCC(=O)OCc2csc(Nc3ccc(C)cc3)n2)c(OC)c1,–,inconclusive: 59.6%
CCN(CC)CCn1c(=N)n(CC(O)COc2cccc(C)c2)c2ccccc21 (stereo not given),–,inconclusive: 43%
Cn1nc(CSc2ccccc2)c(C=O)c1Cl,"inconclusive: 1.84 µM [falling, partial curve]",–
O=C(NCc1ccccc1)c1ccc(N2CCC3(CC2)CC(c2ccc(Cl)cc2)=NO3)c([N+](=O)[O-])c1,–,inconclusive: -20.6%
CCN(CC)CCCN1C(=O)C(=O)/C(=C(/O)c2ccc3c(c2)CC(C)O3)C1c1cccnc1 (stereo not given),–,inconclusive: 0.866%
COc1cccc(C(=O)Nc2ccc(C3CC3(Cl)Cl)cc2)c1 (stereo not given),–,inactive: 15.6% [at 9.22 µM]
O=C1COc2ccc(S(=O)(=O)NCc3ccc(Cl)cc3)cc2N1,"inconclusive: 29.1 µM [activator, single point]",–
Cc1nc(SCC(=O)NC2(C#N)CCCC2)n(CC(C)C)c1C,–,inconclusive
c1ccc(CNc2ncnc3ccccc23)cc1,"inconclusive: 29.1 µM [falling, single point]",–
COc1ccc(/C=C2\S/C(=N/S(=O)(=O)c3cccs3)NC2=O)cc1,–,inconclusive: 57.4%
COc1ccc(CCNC(=O)CSc2ccc3nnc(CCNC(=O)c4ccccc4)n3n2)cc1OC,"inconclusive: 29.1 µM [activator, single point]",–
CC(C)c1csc(CN2CCC(CCC(=O)NCC3CCCO3)CC2)n1 (stereo not given),–,inconclusive: 55.8%
CCn1nc(C(=O)NNC(=O)COc2ccc(OC)cc2)c2ccccc2c1=O,–,inconclusive: -162%
O=C(Nc1cccc(Cl)c1)N(Cc1nc2ccccc2c(=O)[nH]1)Cc1cccs1,–,inconclusive: -0.681%
Nc1ccc(-c2nc3ccc([N+](=O)[O-])cc3[nH]2)cc1,"inconclusive: 32.6 µM [activator, single point]",–
Nc1c(C(=O)NCC2CCCO2)sc(=S)n1-c1ccccc1 (stereo not given),"inconclusive: 2.06 µM [falling, partial curve]",–
COc1ccc(NC(=O)CN2C(=O)NC3(CCCC3)C2=O)cc1OC,"inconclusive: 29.1 µM [falling, single point]",–
O=C1NC[C@@H](Cc2ccc(O)cc2)N(CCc2cccc3ccccc23)C1=O,–,inconclusive: 10.3%
CCCn1c(SCC(=O)N2CCCCC2)nc2c1c(=O)n(C)c(=O)n2C,"inconclusive: 0.517 µM [activator, full curve, poor fit]",–
CC1CN(C(=O)c2cc3ccccc3cc2O)CC(C)O1 (stereo not given),–,inconclusive: 0.147%
C=CCn1cc(/C=C2\SC(N3CCOCC3)=NC2=O)c2ccccc21,–,inconclusive: 30.2%
O=C(Nc1ccccc1Cl)c1cc(S(=O)(=O)N2CCOCC2)cs1,–,inconclusive: -2.49%
CCCn1c(SCC(=O)N2c3ccccc3Sc3ccccc32)nc2ccccc21,–,inconclusive: 22.4%

Compound,Potency,"lipid storage change, negative = inhibition"
Cc1c(C(=O)O)sc2nc3n(c(=O)c12)CCCCC3,"inconclusive: 0.366 µM [falling, single point]",–
COc1ccc(NC(=O)CSc2nc(C3CC3)nc3ccccc23)c(OC)c1,–,inconclusive: 72.9%
COc1ccc(CC(=O)N/N=C\c2cc(Br)c(O)c(Br)c2)cc1,–,inconclusive: -5.52%
CC(=O)N1CCC(N(CCN2CCOCC2)C(=S)Nc2cc(C)ccc2C)CC1,–,inconclusive: -26.6%
Cc1c(-c2ccco2)[n+](=O)c2c(n1[O-])CCCCC2,–,inconclusive: 85.2%
Cc1ccccc1NC(=O)c1ccccc1NS(=O)(=O)c1cccc2cccnc12,–,inconclusive: -21.1%
COc1ccc(C(=O)/C=C/Nc2ccc(S(=O)(=O)Nc3nc(C)cc(C)n3)cc2)cc1OC,–,inconclusive: 21.6%
COc1ccc(NC(=O)Cn2c(=O)n(-c3ccccc3)c(=O)c3oc4ccccc4c32)c(OC)c1,"inconclusive: 29.1 µM [activator, single point]",–
COc1ccc(/C=C/C(=O)C23CC4CC(CC(C4)C2)C3)cc1CN1CCOCC1,–,inconclusive: 20.5%
CC(=O)c1ccc(C(=O)N2CCC(CO)(Cc3cccc(C(F)(F)F)c3)CC2)cc1,–,inconclusive: -19.5%
Cc1ccc(CNC(=O)COc2ccc3c(c2)CCC3)cc1,–,inconclusive: 10.9%
C/C(=N/OCO/N=C(\C)c1ccccc1)c1ccccc1,–,inconclusive: 6.96%
O=C(N/C(=C/c1ccco1)C(=O)N1CCCCCC1)c1ccccc1,–,inconclusive: -53.8%
CCOC(=O)c1cnc2c(OC)cccc2c1N1CCN(c2ccccn2)CC1,–,inconclusive: 3.85%
NCCNc1ccc(C(=O)N2c3ccccc3Sc3ccccc32)cc1[N+](=O)[O-],–,inconclusive: 147%
COC(=O)Cn1nc(-c2ccc(C)c(S(=O)(=O)N(C)C)c2)c2ccccc2c1=O,–,inconclusive: 23.1%
CC(=O)c1ccc(-c2ccc(C(=O)N3CCC(C(N)=O)CC3)o2)cc1,–,inconclusive: 19.8%
CC(C)NC(=O)CSc1nnc(-c2ccc(C(C)(C)C)cc2)n1C,"inconclusive: 23.1 µM [falling, single point]",–
Cn1c(-c2c(N)n(CCc3ccccc3)c3nc4ccccc4nc23)nc2ccccc21,–,inconclusive: -34.4%
COc1ccc(Br)cc1C(=O)Nc1ccccc1N1CCN(C(=O)c2ccccc2)CC1,–,inconclusive: 35.1%
CC(C)NC(=O)C(c1ccc(F)cc1)N(Cc1ccco1)C(=O)CCC(=O)Nc1ccccn1 (stereo not given),"inconclusive: 0.13 µM [activator, partial curve, poor fit]",–
CC(C)N1CC(C(=O)Nc2ccc(S(=O)(=O)N3CCCCC3)cc2)CC1=O (stereo not given),–,inconclusive: 41.2%
O=C1C=C(c2ccc3ncccc3c2)C[C@@H](c2ccc3c(c2)OCO3)C1,–,inconclusive: 6.16%
CCc1cccc(C)c1NC(=O)c1ccc2c(c1)CCN2S(C)(=O)=O,–,inconclusive: 18.5%
Cc1noc(C)c1CN1C(=O)NC(Cc2ccccc2)(Cc2ccccc2)C1=O,"inconclusive: 13 µM [activator, single point]",–

# In the list so far, 2 contain an NH in an aromatic ring.
Compound,Potency,"lipid storage change, negative = inhibition"
O=C(Nc1cccc(Cl)c1)N(Cc1nc2ccccc2c(=O)[nH]1)Cc1cccs1,–,inconclusive: -0.681%
Nc1ccc(-c2nc3ccc([N+](=O)[O-])cc3[nH]2)cc1,"inconclusive: 32.6 µM [activator, single point]",–

# (further entries)

Compound,Potency,"lipid storage change, negative = inhibition"
O=C(c1ccc(Cl)cc1)C1CCCN(Cc2ccc(Oc3ncccn3)cc2)C1 (stereo not given),"inconclusive: 16.4 µM [falling, partial curve, poor fit]",–
CC(C)CC(C(=O)OCC(=O)c1c(N)n(C)c(=O)n(C)c1=O)N1C(=O)C2CC=CCC2C1=O (stereo not given),–,inconclusive: -6.2%
CNC(=O)/C(=C\c1ccc2c(c1)OCO2)NC(=O)c1ccc(Br)cc1,"inconclusive: 6.51 µM [activator, partial curve, poor fit]",–
COc1ccc(-c2cc3nc(C)cc(-c4ccc(OC)cc4)n3n2)cc1,–,inconclusive: -20%
Cc1[nH]c(=O)[nH]c(=O)c1Cc1cccc2ccccc12,–,inconclusive: -23.8%
O=C(COC(=O)c1ccccn1)Nc1ccc(S(=O)(=O)N2CCOCC2)cc1,–,inconclusive: -39.5%
CN(CC(=O)Nc1ccc(F)cc1)C(=O)COc1ccccc1Cc1ccccc1,–,inconclusive: 17.2%
CN(C)/N=C/c1ccc(Sc2ccccc2[N+](=O)[O-])o1,–,inconclusive: 15.9%
CCOC(=O)CCc1c(C)c2ccc(OCC(=O)N(CC)CC)c(C)c2oc1=O,"inconclusive: 0.116 µM [falling, full curve, poor fit]",–
CC1Cn2c(nnc2-c2ccccc2O)S1 (stereo not given),"inconclusive: 6.51 µM [activator, single point]",–
CCOc1ccc2ccccc2c1/C=N/NC(=O)CNC(=O)c1ccccc1O,–,inconclusive: 31.2%
CC(NC(=O)COC(=O)CNC(=O)c1ccc(-c2ccccc2)cc1)c1ccccc1 (stereo not given),–,inactive
O=C(CCCCCNC(=O)c1ccccc1)N/N=C/c1ccccc1O,active: 9.2 µM,–
CS(=O)(=O)Nc1ccc(C(=O)NCCc2ccccc2)cc1,"inconclusive: 11.6 µM [rising, partial curve]",–
CCC(C)NC(=O)c1ccc(CNS(=O)(=O)c2ccc3c(c2)C(C)(C)C(=O)N3C)cc1 (stereo not given),–,inconclusive: 14.5%
Cc1ccc(-c2noc(-c3ccccc3C(=O)N3CCCC3)n2)cc1,–,inconclusive: 25.3%
CCCCc1ncc(CN2CCC(n3nccc3NC(=O)c3ccccc3Cl)CC2)[nH]1,"inconclusive: 18.4 µM [activator, single point]",–
NC(=O)Nn1c(CCC(=O)O)ccc1-c1ccc(Br)cc1,"inconclusive: 29.1 µM [falling, partial curve, poor fit]",–
Cc1ccc(C(C)C)c(OCC(=O)NS(=O)(=O)c2ccc(Cl)cc2)c1,–,inconclusive: -60.8%
COC(=O)c1ccccc1OC(=O)c1cccnc1,–,inconclusive: -17.4%
COc1cc(OC)cc(OCC(O)Cn2ccnc2)c1 (stereo not given),–,inconclusive: 48.3%
NC(=O)c1ccccc1NS(=O)(=O)c1ccc2c(c1)OCCO2,–,inconclusive: 78.9%
CC(C)c1ccccc1OCC(=O)Nc1nnc(C2CC2)s1,–,inconclusive
COc1ccccc1CNC(=O)CN1C(=O)NC(C)(c2ccc(C(C)(C)C)cc2)C1=O (stereo not given),–,inconclusive: -111%
O=C(C1CC1)N1CCCC(c2ccc(Cl)cc2)=N1,–,inconclusive: 1.7%

# Compounds from the list above that have a COOH group (2):
Compound,Potency,"lipid storage change, negative = inhibition"
Cc1c(C(=O)O)sc2nc3n(c(=O)c12)CCCCC3,"inconclusive: 0.366 µM [falling, single point]",–
NC(=O)Nn1c(CCC(=O)O)ccc1-c1ccc(Br)cc1,"inconclusive: 29.1 µM [falling, partial curve, poor fit]",–
